Results as given in PubChem BioAssay AID330 (DTP/NCI, 2004).
The list shows only some results of the screen, not a fair sample: it gathers tests that were run many times, whatever their T/C, doses with no T/C, and many T/C values between a quarter and a half above the control. Other doses and runs of a compound stand elsewhere. T/C is the treated group as % of the vehicle group. Some entries give survivors of the animals treated and no T/C: the source files T/C as zero there, which appears to mark a toxic dose or a test without result, not a measured value. Some doses without a T/C left all or most animals alive at the check, yet need not have been tolerated: the source hardly ever lists a survival T/C far under the control, and the zero likely stands for such cases as well. Counts of survivors are from the toxicity check (mostly the fifth day) where no day follows; animals may have died later. Schedules are NCI's codes, read here as Q, the interval in days (D) or hours (H), X, the number of doses. Some entries were tested several times; their values stand side by side, smallest first. Where survival is the endpoint, this PubChem deposit counts one and a half times the control or more as active, and values a quarter to a half above the control carry no call in these data; other NCI protocols may use other cut-offs. Some T/C values are followed by the survivors on the day toxicity was checked, most often the fifth; where none is given, no animal had died by that day.

Tested on: P388 leukemia ip, CD2F1 mice, survival T/C
Test: NCI In Vivo Anticancer Drug Screen. Data for tumor model P388 Leukemia (intraperitoneal) in CD2F1 (CDF1) mice
Conditions: T/C endpoint: median survival time, higher T/C = longer survival
[1] = dose: 128.0 mg/kg/injection, schedule: Q01DX009 (ip), vehicle: Klucel (hydroxypropylcellulose) (HPC)
[2] = dose: 256.0 mg/kg/injection, schedule: Q01DX009 (ip), vehicle: Klucel (hydroxypropylcellulose) (HPC)
[3] = dose: 200.0 mg/kg/injection, schedule: Q01DX005 (ip), vehicle: saline with Tween-80
[4] = dose: 200.0 mg/kg/injection, schedule: Q01DX009 (ip), vehicle: saline
[5] = dose: 50.0 mg/kg/injection, schedule: Q01DX009 (ip), vehicle: saline
[6] = dose: 100.0 mg/kg/injection, schedule: Q01DX009 (ip), vehicle: saline
[7] = dose: 25.0 mg/kg/injection, schedule: Q01DX009 (ip), vehicle: distilled water + Tween-80
[8] = dose: 50.0 mg/kg/injection, schedule: Q01DX009 (ip), vehicle: distilled water + Tween-80

## Nc1ncnc2nc[nH]c12
dose: 64.0 mg/kg/injection, schedule: Q01DX009 (ip), vehicle: Klucel (hydroxypropylcellulose) (HPC)
  survivor count: 5 of 6 and 6 of 6
[1]
  survivor count: 5 of 6
[2]
  survivor count: 3 of 6 and 6 of 6
dose: 256.0 mg/kg/injection, schedule: Q01DX009 (ip), vehicle: saline with Tween-80
  T/C: 126 % of control
dose: 512.0 mg/kg/injection, schedule: Q01DX009 (ip), vehicle: Klucel (hydroxypropylcellulose) (HPC)
  survivor count: 0 of 6
dose: 512.0 mg/kg/injection, schedule: Q01DX009 (ip), vehicle: saline with Tween-80
  survivor count: 1 of 6 and 2 of 6

## COC(=O)[C@@H]1O[C@H]2OC=C[C@H]21
dose: 100.0 mg/kg/injection, schedule: Q01DX005 (ip), vehicle: saline
  survivor count: 4 of 5
dose: 200.0 mg/kg/injection, schedule: Q01DX005 (ip), vehicle: saline
  survivor count: 0 of 5

## CN(C)NP(=S)(NN(C)C)Oc1ccccc1
[3]
  survivor count: 2 of 5

## CC1([CH2][Hg][I])COCC([CH2][Hg][I])O1 (stereo not given)
dose: 100.0 mg/kg/injection, schedule: Q04DX003 (ip), vehicle: saline with Tween-80
  survivor count: 0 of 6
dose: 200.0 mg/kg/injection, schedule: Q04DX003 (ip), vehicle: saline with Tween-80
  survivor count: 0 of 6
dose: 400.0 mg/kg/injection, schedule: Q04DX003 (ip), vehicle: saline with Tween-80
  survivor count: 0 of 6

## CN(C)C1C(O)C2Oc3c(cc(O)c4c3C(=O)c3cc5c(c(O)c3C4=O)C(NC3CCCCC3)CC(C)(O)C5)C(C)(O2)C1O (stereo not given)
dose: 20.0 mg/kg/injection, schedule: Q01DX009 (ip), vehicle: other
  T/C: 133 % of control

## CCOC(=O)C(CC(C)C)NC(=O)C(Cc1ccc(N(CCCl)CCCl)cc1)NC(C)=O (stereo not given)
dose: 2.0 mg/kg/injection, schedule: Q01DX009 (ip), vehicle: saline
  T/C: 134 % of control
dose: 4.0 mg/kg/injection, schedule: Q01DX009 (ip), vehicle: saline
  T/C: 140 % of control
dose: 8.0 mg/kg/injection, schedule: Q01DX009 (ip), vehicle: olive oil, sesame oil, peanut oil
  T/C: 130 % of control
dose: 8.0 mg/kg/injection, schedule: Q01DX009 (ip), vehicle: saline
  T/C: 145 % of control
dose: 8.4 mg/kg/injection, schedule: Q04DX003 (ip), vehicle: saline with Tween-80
  T/C: 127 % of control
dose: 12.5 mg/kg/injection, schedule: Q01DX005 (ip), vehicle: Klucel (hydroxypropylcellulose) (HPC)
  T/C: 144 % of control
dose: 12.6 mg/kg/injection, schedule: Q04DX003 (ip), vehicle: saline with Tween-80
  T/C: 132 % of control
dose: 16.0 mg/kg/injection, schedule: Q01DX009 (ip), vehicle: Klucel (hydroxypropylcellulose) (HPC)
  T/C: 130 % of control
dose: 16.0 mg/kg/injection, schedule: Q01DX009 (ip), vehicle: olive oil, sesame oil, peanut oil
  T/C: 145 % of control
dose: 25.0 mg/kg/injection, schedule: Q01DX005 (iv), vehicle: Klucel (hydroxypropylcellulose) (HPC)
  T/C: 142 % of control
dose: 32.0 mg/kg/injection, schedule: Q01DX009 (ip), vehicle: other
  T/C: 125 % of control [5 of 6 alive]
dose: 32.0 mg/kg/injection, schedule: Q01DX009 (ip), vehicle: saline with Tween-80
  T/C: 127 % of control
dose: 64.0 mg/kg/injection, schedule: Q01DX009 (ip), vehicle: olive oil, sesame oil, peanut oil
  T/C: 143 % of control
dose: 64.0 mg/kg/injection, schedule: Q01DX009 (ip), vehicle: other
  T/C: 131 % of control
dose: 64.0 mg/kg/injection, schedule: Q01DX009 (ip), vehicle: saline with Tween-80, evaluated on day 30
  T/C: 130 % of control
dose: 64.0 mg/kg/injection, schedule: Q01DX009 (ip), vehicle: saline with Tween-80, evaluated on day 35
  T/C: 127 % of control
dose: 64.0 mg/kg/injection, schedule: Q01DX009 (ip), vehicle: saline
  T/C: 127 % of control
dose: 100.0 mg/kg/injection, schedule: Q01DX005 (ip), vehicle: Klucel (hydroxypropylcellulose) (HPC)
  survivor count: 6 of 6
dose: 100.0 mg/kg/injection, schedule: Q01DX005 (iv), vehicle: Klucel (hydroxypropylcellulose) (HPC)
  survivor count: 4 of 6
[1]
  survivor count: 6 of 6
dose: 128.0 mg/kg/injection, schedule: Q01DX009 (ip), vehicle: olive oil, sesame oil, peanut oil
  survivor count: 5 of 6
dose: 128.0 mg/kg/injection, schedule: Q01DX009 (ip), vehicle: other
  T/C: 149 % of control
dose: 128.0 mg/kg/injection, schedule: Q01DX009 (ip), vehicle: saline with Tween-80
  T/C: 135 % of control
dose: 128.0 mg/kg/injection, schedule: Q01DX009 (ip), vehicle: saline
  survivor count: 10 of 10
dose: 128.0 mg/kg/injection, schedule: Q04DX003 (ip), vehicle: saline with Tween-80
  survivor count: 10 of 10
dose: 144.0 mg/kg/injection, schedule: Q04DX003 (ip), vehicle: saline with Tween-80
  T/C: 145 % of control
[2]
  survivor count: 4 of 6
dose: 256.0 mg/kg/injection, schedule: Q01DX009 (ip), vehicle: olive oil, sesame oil, peanut oil
  survivor count: 0 of 6
dose: 256.0 mg/kg/injection, schedule: Q01DX009 (ip), vehicle: saline
  survivor count: 0 of 10
dose: 256.0 mg/kg/injection, schedule: Q04DX003 (ip), vehicle: saline with Tween-80
  survivor count: 6 of 10

## CO[C@H]1[C@H]2OC(C)(C)O[C@H]2O[C@H]1/C=C1\CC(=O)NC1=O
[4]
  T/C: 131 % of control
dose: 400.0 mg/kg/injection, schedule: Q01DX009 (ip), vehicle: suspension in saline
  T/C: 137 % of control [5 of 6 alive]

## CC[N+]1(CC)CCCCC1
[5]
  survivor count: 1 of 6
[6]
  survivor count: 1 of 6
[4]
  survivor count: 0 of 6

## O=C(O)C(O)C(O)C(O)C(O)CO.[Mn] (stereo not given)
dose: 100.0 mg/kg/injection, schedule: Q01DX009 (ip), vehicle: saline with Tween-80
  T/C: 130 % of control
dose: 200.0 mg/kg/injection, schedule: Q01DX009 (ip), vehicle: saline with Tween-80
  survivor count: 5 of 6

## CC[N+](C)(C)c1ccccc1
dose: 50.0 mg/kg/injection, schedule: Q04DX002 (ip), vehicle: saline
  survivor count: 3 of 6
dose: 100.0 mg/kg/injection, schedule: Q04DX002 (ip), vehicle: saline
  survivor count: 0 of 6

## Cc1nn(C(=O)c2cccnc2)c(-c2ccccc2)c1N=Nc1ccc(S(=O)(=O)Nc2ncccn2)cc1
[3]
  survivor count: 6 of 6

## COC(=O)c1ccccc1NC(CCN1CCN(c2ccccc2)CC1)=NC(C)(C)C
dose: 200.0 mg/kg/injection, schedule: Q01DX009 (ip), vehicle: Klucel (hydroxypropylcellulose) (HPC)
  survivor count: 6 of 6

## Nc1[nH]c(=O)ncc1-c1ccc([N+](=O)[O-])cc1
dose: 100.0 mg/kg/injection, schedule: Q01DX005 (ip), vehicle: saline with Tween-80
  survivor count: 0 of 5
[3]
  survivor count: 0 of 5

## COc1ccc(C2C(C(=O)OCc3ccccc3)=C(C)NC(C)=C2C(=O)OCc2ccccc2)cc1
[7]
  survivor count: 6 of 6
[8]
  survivor count: 6 of 6

## CC1(C)SC2C(NC(=O)C(N)c3ccc(O)cc3)C(=O)N2C1C(=O)O (stereo not given)
[5]
  survivor count: 6 of 6
[6]
  survivor count: 6 of 6
[4]
  survivor count: 6 of 6

## O=NN(CCCl)C(=O)Nc1cccc(O)c1
dose: 150.0 mg/kg/injection, schedule: Q04DX003 (ip), vehicle: Klucel (hydroxypropylcellulose) (HPC)
  survivor count: 6 of 6

## CCC(=O)NC1=C(N2CC2C)C(=O)C(NC(=O)CC)=C(N2CC2C)C1=O (stereo not given)
dose: 50.0 mg/kg/injection, schedule: Q01DX009 (ip), vehicle: Klucel (hydroxypropylcellulose) (HPC)
  survivor count: 5 of 6
[5]
  survivor count: 6 of 6
dose: 100.0 mg/kg/injection, schedule: Q01DX009 (ip), vehicle: Klucel (hydroxypropylcellulose) (HPC)
  survivor count: 0 of 6
[6]
  survivor count: 4 of 6

## Cc1c(C)n(-c2ccccc2)c2nc(C)n(-c3ccccc3)c(=N)c12
dose: 200.0 mg/kg/injection, schedule: Q01DX005 (ip), vehicle: Klucel (hydroxypropylcellulose) (HPC)
  survivor count: 0 of 6

## CCCCCCCCCCN(CCCCCCCCCC)C1CC(OC2CC(O)(C(C)=O)Cc3c(O)c4c(c(O)c32)C(=O)c2c(OC)cccc2C4=O)OC(C)C1O (stereo not given)
[7]
  survivor count: 1 of 3
[8]
  survivor count: 0 of 3
dose: 150.0 mg/kg/injection, schedule: Q04DX003 (ip), vehicle: other
  T/C: 140 % of control [5 of 6 alive]
